Measured values: patent publication US20110293746A1, “Modulation of Gsk-3Beta and Method of Treating Proliferative Disorders” (Agency For Science, Technology and Research, priority 2004, published 2011)
For some assays here: At least one structure is not confirmed: it was looked up by name or label, or the drawing left a doubt. Some entries share one result that the patent states for a list of compounds.

By UniProt entry, the sequences of proteins in these tests, tags left out. Where a name states a change or a piece, a line headed by the entry shows the natural chain unless it says otherwise.
UniProt P49841: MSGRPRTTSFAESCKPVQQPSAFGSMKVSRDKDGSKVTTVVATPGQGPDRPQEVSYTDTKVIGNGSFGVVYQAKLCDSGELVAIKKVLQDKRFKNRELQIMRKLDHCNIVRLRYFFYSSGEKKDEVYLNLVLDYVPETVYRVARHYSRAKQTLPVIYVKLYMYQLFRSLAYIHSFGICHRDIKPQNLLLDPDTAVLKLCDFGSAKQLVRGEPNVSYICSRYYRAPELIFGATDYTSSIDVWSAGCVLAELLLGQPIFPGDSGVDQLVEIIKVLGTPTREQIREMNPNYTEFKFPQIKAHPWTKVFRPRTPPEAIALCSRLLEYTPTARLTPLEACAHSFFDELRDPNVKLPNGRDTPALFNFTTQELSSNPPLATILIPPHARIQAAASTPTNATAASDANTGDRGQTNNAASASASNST

Key:
GSK-3β = biological target: T1, GSK-3β (Homo sapiens, UniProt P49841); assay: Immunoblot analysis of GSK-3 phosphorylation status in HCT116 cells; format: cell-based; details: cells treated with LY294002 (AKT inhibitor), data not shown
T1 construct: endogenous in cells; host or cells: HCT116
Experimental: Protein concentration was quantified (Bio-Rad, Hercules, Calif.) and protein samples (50 μg) were separated by SDS/PAGE and transferred onto Immobilon™ membranes (Millipore, Bedford, Mass.). […] To detect Bax conformational change, cells were lysed in 1% Chaps buffer and the soluble fraction was immunoprecipitated with anti-Bax monoclonal antibody (6A7, BD, PharMingen), followed by immunoblotting with anti-Bax polyclonal antibody.
Subcellular fractionation: Cells were lysed in mitochondria lysis buffer (210 mM Mannitol, 70 mM Sucrose, 10 mM Hepes (pH, 7.4), 1 mM EDTA, protease inhibitor cocktail) with a Dounce homogenizer and subjected to centrifugation at 1000×g to pellet the nuclei. Post-nuclear supernatant was centrifuged at 10,000×g to pellet the mitochondria-enriched heavy membrane fraction, and the resulting supernatant was further centrifuged to obtain cytosolic fraction. Total proteins (30 μg) from cytosolic or mitochondrial fractions were subjected to immunoblot analysis.

HCT116 cells = assay: FACS analysis of DNA content (sub-G1 apoptotic fraction); format: cell-based, Human; details: ADR (1 μM) or LY2119301 (5 μM) alone, 24 h
Experimental: Cell culture and drug treatments: Human colon cancer cell line HCT116 and its derived isogenic p53^−/−, Puma^−/−, Bax^−/− and p53-inducible DLD cell lines were kindly provided by Dr. Bert Vogelstein (Johns Hopkins University, MD). RKO and RKO/E6 cells were from ATCC. Cells were cultured in DMEM containing 10% FBS. All culture reagents and media were from Invitrogen. 5-Fluorouracil, Adriamycin, etoposide and lithium chloride were purchased from Sigma. GSK-3β specific small molecule inhibitor LY2119301 was a gift from Eli Lilly (Indianapolis) and SB-216763, SB-415283 were obtained from BIOMOL.
FACS analysis of DNA content and caspase-3 activity: Cells were harvested and fixed in 70% ethanol. Fixed cells were stained with propidium iodide (50 μg/ml) after treatment with RNase (100 μg/ml). The stained cells were analyzed for DNA content by fluorescence-activated cell sorting (FACS) in a FACScalibur™ (Becton Dickinson Instrument, San Jose, Calif.). Cell cycle fractions were quantified using the CellQues™ software (Becton Dickinson). To measure caspase-3 activity, cells were fixed with Cytofix/Cytoperm™ solution (BD PharMingen) as instructed, and then stained with FITC-conjugated rabbit anti-active caspase-3 monoclonal antibody (BD PharMingen). Quantification of cells positive for the caspase-3 detection was performed by flow cytometry.

Compound: O=c1cc(N2CCOCC2)oc2c(-c3ccccc3)cccc12 [LY294002]
- serine 9 phosphorylation triggered by LY2119301 and lithium (GSK-3β): did not block

Compound: COc1cccc2c1C(=O)c1c(O)c3c(c(O)c1C2=O)C[C@@](O)(C(=O)CO)C[C@@H]3O[C@H]1C[C@H](N)[C@H](O)[C@H](C)O1 [ADR, Adriamycin]
- cell death, sub-G1 population (HCT116 cells): 3-5%
